Results published in paper PMC6484711.
No constants are given. Whether binding was seen depends on the method and setting. In cells and extracts the contact can be indirect. Here binding means that the protein was enriched with, or labelled near, the bait; the list need not be complete.

Protein sequences, listed by entry. Tags and fused reporters are not part of them.
UniProt Q86W56: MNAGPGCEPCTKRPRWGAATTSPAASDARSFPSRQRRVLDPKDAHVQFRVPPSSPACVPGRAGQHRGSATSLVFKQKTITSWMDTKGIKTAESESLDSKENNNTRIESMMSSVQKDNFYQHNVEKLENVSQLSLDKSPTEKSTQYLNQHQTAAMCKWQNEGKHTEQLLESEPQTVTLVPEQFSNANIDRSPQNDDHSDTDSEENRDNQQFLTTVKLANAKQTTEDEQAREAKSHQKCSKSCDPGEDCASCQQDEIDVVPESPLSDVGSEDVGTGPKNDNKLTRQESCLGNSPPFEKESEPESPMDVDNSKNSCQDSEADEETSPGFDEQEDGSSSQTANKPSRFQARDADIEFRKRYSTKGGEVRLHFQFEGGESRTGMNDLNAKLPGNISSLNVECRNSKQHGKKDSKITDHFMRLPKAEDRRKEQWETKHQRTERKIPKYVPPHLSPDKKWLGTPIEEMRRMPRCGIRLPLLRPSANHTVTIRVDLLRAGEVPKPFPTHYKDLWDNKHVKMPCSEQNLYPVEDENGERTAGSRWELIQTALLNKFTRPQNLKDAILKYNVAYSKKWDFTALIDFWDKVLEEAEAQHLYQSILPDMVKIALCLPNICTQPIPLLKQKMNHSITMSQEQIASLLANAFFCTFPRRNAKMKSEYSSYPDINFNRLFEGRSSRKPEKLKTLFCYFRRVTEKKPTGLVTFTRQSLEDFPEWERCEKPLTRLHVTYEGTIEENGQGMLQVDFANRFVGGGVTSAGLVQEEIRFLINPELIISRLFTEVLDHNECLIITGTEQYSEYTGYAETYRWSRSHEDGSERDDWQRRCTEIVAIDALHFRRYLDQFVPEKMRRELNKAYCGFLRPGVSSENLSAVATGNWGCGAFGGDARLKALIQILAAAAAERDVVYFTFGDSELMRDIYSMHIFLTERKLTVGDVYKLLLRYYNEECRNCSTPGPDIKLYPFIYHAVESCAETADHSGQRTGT
UniProt Q15796: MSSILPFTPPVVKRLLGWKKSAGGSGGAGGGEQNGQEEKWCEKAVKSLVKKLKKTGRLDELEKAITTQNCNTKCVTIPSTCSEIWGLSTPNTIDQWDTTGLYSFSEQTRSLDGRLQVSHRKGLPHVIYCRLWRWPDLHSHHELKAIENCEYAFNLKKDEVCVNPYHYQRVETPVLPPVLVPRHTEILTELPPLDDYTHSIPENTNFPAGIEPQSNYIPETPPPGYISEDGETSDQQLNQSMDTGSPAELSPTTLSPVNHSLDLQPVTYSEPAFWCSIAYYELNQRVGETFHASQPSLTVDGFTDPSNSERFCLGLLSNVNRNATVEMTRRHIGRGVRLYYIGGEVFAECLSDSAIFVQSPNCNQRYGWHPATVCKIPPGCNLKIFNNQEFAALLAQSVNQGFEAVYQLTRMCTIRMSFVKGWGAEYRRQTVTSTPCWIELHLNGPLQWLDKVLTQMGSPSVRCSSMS
UniProt P84022: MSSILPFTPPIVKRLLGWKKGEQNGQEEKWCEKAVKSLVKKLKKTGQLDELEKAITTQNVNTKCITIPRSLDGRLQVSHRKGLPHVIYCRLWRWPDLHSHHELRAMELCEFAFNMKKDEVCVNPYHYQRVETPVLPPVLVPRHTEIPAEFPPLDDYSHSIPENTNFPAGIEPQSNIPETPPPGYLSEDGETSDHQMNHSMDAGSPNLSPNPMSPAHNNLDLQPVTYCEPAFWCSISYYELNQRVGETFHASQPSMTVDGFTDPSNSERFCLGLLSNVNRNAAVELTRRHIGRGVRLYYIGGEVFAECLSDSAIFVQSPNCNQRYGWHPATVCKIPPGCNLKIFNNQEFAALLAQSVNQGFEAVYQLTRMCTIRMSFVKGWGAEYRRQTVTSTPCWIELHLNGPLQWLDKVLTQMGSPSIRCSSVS

Target: birA-tagged PARG, full-length 110 kDa wild-type poly (ADP-ribose) glycohydrolase (UniProt Q86W56)
Test: proximity labelling; bioID: HEK293T transfected with birA constructs, 50 uM biotin for 18 h, whole cell lysis buffer, biotinylated proteins captured on streptavidin Dynabeads 3 h at 4 C, western blot of PARG and SMAD2/3

binding | Substance
binds | SMAD2 (from UniProt Q15796 1-467)
binds | SMAD3 (from UniProt P84022 1-425)
